According to PubChem BioAssay AID624291 (National Center for Advancing Translational Sciences (NCATS), 2012):
In all, about 350,000 compounds went through this assay and about 220 (0.063%) were called active. The inconclusive results got no clear call from the source; some entries with a clear call stand among them for comparison. Calls follow the shape of the dose curve; as a rule, active = well fitted activation curve with a large enough effect; inconclusive = small, poorly fitted or top-dose-only effect; inactive = no such curve, though single readings can be large or run the other way. Potencies of inconclusive entries are doubtful fits and often do not repeat.

experiment: qHTS for Activators of Integrin-Mediated Alleviation for Muscular Dystrophy; conditions: alpha7betagal myoblasts, beta-gal FDG fluorescence, 48 h; activation: at 38.3 µM (top of the series); also: nearly all actives have a fitted effect of over 60% in size;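 as to activation: 100% = response of the positive control SU9516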
How it was run: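 Alpha7betagal+/- myoblasts (passage 13) were plated 16-24 hr, then exposed to compounds (1:260 dilution of DMSO stock) for 48 hours at 37C. After MPER lysis, β-galactosidase reporter activity was read as FDG fluorescence (ex 480/em 540) after 30 minutes.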
Potency is read from the fitted curve at half-maximal effect.

Potency, inconclusive:
CCCCOCCCNC(=O)C1c2ccccc2Oc2ccccc21 31.6 µM [activator, partial curve, poor fit], CN1CCN(NC(=O)NC2CCCCC2)CC1 10 µM [activator, partial curve, poor fit], O=C(Nc1nnc(C(F)(F)F)s1)C1COc2ccccc2O1 (stereo not drawn) 22.4 µM [activator, single point], CCOc1ccc(CNn2cnnc2)cc1 5.01 µM [activator, single point], CCN(CC)C(=O)c1[nH]cnc1C(=O)Nc1cccc(C)c1 5.62 µM [activator, partial curve, poor fit], Cc1cccc(CSc2nnc(C)c(=O)n2N)c1 1.26 µM [activator, partial curve, poor fit], CC(C)c1ccc(/C=C2\SC(=S)N(CC(=O)NCCCN3CCOCC3)C2=O)cc1 2 µM [activator, full curve, poor fit], CC(=O)c1ccc(N2CCN(c3ccc(S(=O)(=O)N4CCN(C)CC4)cn3)CC2)cc1 1 µM [activator, partial curve, poor fit], O=C(COc1ccccc1)NCc1ccc2c(c1)OCO2 31.6 µM [activator, single point], O=C(NCc1ccccc1)c1cnsn1 5.01 µM [activator, single point], O=C(Nc1cccc(NC(=O)c2cccc([N+](=O)[O-])c2)n1)c1cccc([N+](=O)[O-])c1 2.82 µM [activator, single point], N#Cc1ccc(/C=N/NC(=O)c2cccc(S(=O)(=O)N3CCOCC3)c2)cc1 5.01 µM [activator, single point], CSCCC(NC(=O)c1ccco1)C(=O)N1CC(C)OC(C)C1 (stereo not drawn) 2.51 µM [activator, single point], COc1ccc(CCNC(=O)CCCCC(=O)NCCc2ccc(OC)cc2)cc1 1.41 µM [activator, full curve, poor fit], COc1ccc(NC(=O)C2(N(C(=O)Cn3nnnc3N)c3ccc(OC)cc3)CCCCC2)cc1 2.24 µM [activator, full curve], COc1cc2c(cc1OC)C(c1ccc(Br)cc1)NC(=O)C2 (stereo not drawn) 28.2 µM [activator, single point], COc1ccc(/C=C/C(=O)NCC(=O)N/N=C/c2ccc(OC)cc2)cc1 3.16 µM [activator, single point], Cc1ccc(-c2nc3cc(N)ccc3o2)cc1Br 3.16 µM [activator, partial curve, poor fit], O=C(NCc1nnc(SCC(=O)N2CCN(c3ccccc3)CC2)o1)c1ccccc1 1.12 µM [activator, partial curve, poor fit], O=C(CN1C(=O)NC2(CCc3ccccc32)C1=O)NCC(F)(F)F (stereo not drawn) 5.01 µM [activator, single point], Cc1cc(N/C=C\c2nnnn2-c2ccc(F)cc2)no1 0.501 µM [activator, partial curve, poor fit], Cc1ccc2nc(-c3ccc(F)cc3)nc(SCC(=O)NCC3CCCO3)c2c1 (stereo not drawn) 2.82 µM [activator, single point], CC(NCCc1ccc(S(N)(=O)=O)cc1)C(=O)NCc1ccccc1 (stereo not drawn) 5.01 µM [activator, single point], CC(OC(=O)c1cc(=O)c2ccccc2o1)C(=O)Nc1ccc(N(C)C)cc1 (stereo not drawn) 10 µM [activator, partial curve, poor fit], CC1CCc2c(sc(NC(=O)COC(=O)c3ccc(NC(=O)CC#N)cc3)c2C#N)C1 (stereo not drawn) 12.6 µM [activator, single point], O=S(=O)(c1cccc2nonc12)N1CCCCCC1 7.94 µM [activator, partial curve, poor fit], COc1ccc2c(c1)c(=O)c(Br)c(C)n2Cc1ccccc1 31.6 µM [activator, single point], COc1cc(OC)cc(C(=O)NNC(=O)C2CCCC2)c1 5.01 µM [activator, single point], O=C(N=Nc1c(O)[nH]c2ccccc12)c1cc(-c2ccc(F)cc2)n[nH]1 3.16 µM [activator, single point], O=C(NC1CCCCC1)c1cc(C2CC2)on1 28.2 µM [activator, single point], O=c1[nH]c2ccc(NC(=S)Nc3ccc(F)cc3)cc2[nH]1 14.1 µM [activator, single point], CCOC(=O)c1ccc(NC(=O)c2ncn3c2C(=O)NC[C@@H]3C)cc1 12.6 µM [activator, partial curve, poor fit], Cc1cc(C)c(C#N)c(SCc2ccc(C(=O)O)cc2)n1 5.01 µM [activator, single point], Cc1cc(C)n2nc(SCc3ccccc3C(=O)O)nc2n1 28.2 µM [activator, single point], O=C(CNCc1ccc(F)cc1)Nc1ccc(S(=O)(=O)N2CCOCC2)cc1 28.2 µM [activator, partial curve, poor fit], O=C(c1c[nH]c2ccccc12)N1CCN(c2ccccc2)CC1 2 µM [activator, partial curve, poor fit], O=C(O)/C=C/c1ccc(-c2cccc(C(F)(F)F)c2)o1 2.82 µM [activator, partial curve, poor fit], COc1ccc(/C(C)=N/Nc2nc3ccccc3n3cnnc23)cc1OC 28.2 µM [activator, single point], COC(=O)c1ccc(NC(=O)CN2CCN(S(=O)(=O)c3ccc(Br)cc3)CC2)cc1 3.55 µM [activator, partial curve, poor fit], CC(C(=O)Nc1cccnc1)c1ccc([N+](=O)[O-])cc1 (stereo not drawn) 3.55 µM [activator, full curve, poor fit], CC(=O)c1ccc(S(=O)(=O)Nc2ccc(S(=O)(=O)N3CCCCC3)cc2)cc1 5.01 µM [activator, single point], COc1ccc(N2CCN(S(=O)(=O)CCNC(=O)c3cc(=O)c4ccccc4o3)CC2)cc1 12.6 µM [activator, single point], O=C(NCC(F)(F)F)Nc1nnc(C(F)(F)F)s1 7.08 µM [activator, partial curve, poor fit], CC1(C)OC(=O)N(NCc2ccccc2)C1(C)O (stereo not drawn) 5.62 µM [activator, partial curve, poor fit], COc1ccccc1NC(=O)C(C)Sc1nc(-c2ccccc2)cn1N (stereo not drawn) 5.01 µM [activator, single point], Cc1cnc(C(=O)Nc2ccc(OC(F)(F)F)cc2)cn1 3.16 µM [activator, single point], CC(=O)N1CCN(c2ccccc2NC(=O)c2cccs2)CC1 5.62 µM [activator, single point], Cc1cc(C(=O)N/N=C/c2cc(Br)c(Br)o2)n[nH]1 28.2 µM [activator, single point]

Potency, inactive:
CCN(C(=O)COc1ccc2ccc(=O)oc2c1)C1CCCCC1, CCOC(=O)CN(C(=O)CSc1nnc2c(n1)[nH]c1ccc(OC)cc12)c1ccc(F)cc1, COC(=O)c1cccc(OCC(O)Cn2ccnc2)c1 (stereo not drawn), O=C(CN1C(=O)S/C(=C\c2ccccc2F)C1=O)NC1C=CS(=O)(=O)C1 (stereo not drawn), O=[N+]([O-])c1ccccc1/C=N/N1CCN(c2ccncc2S(=O)(=O)N2CCCCC2)CC1, COC(=O)C(CC(C)C)N1CCC(=O)c2ccccc2S1(=O)=O (stereo not drawn), CN(c1ccccc1)S(=O)(=O)c1ccc2[nH]c(=O)oc2c1, OCC1(Cc2ccccc2)CCN(Cc2cccc(F)c2F)CC1, COc1ccccc1OCc1ccc(C(=O)Nc2ccc(Cl)cn2)o1, Clc1cccc(CN2CCSCC2)c1, CC(C)(C)C(=O)NC(=S)NNC(=O)c1ccc(-c2ccccc2)cc1, CCOc1ccc(C(=O)COC(=O)c2c(-c3ccccc3)noc2C)cc1, O=C(CCN1C(=O)/C(=C/c2cccs2)SC1=S)Nc1ccc(O)cc1, Oc1ccc(-c2nnc(SCC3CCCCC3)o2)cc1, Cc1cc(C(=O)NNC(=O)c2ccc(C(F)(F)F)cc2)no1, CC(=O)Oc1ccc(-n2c(=O)c3ccccc3c3ccccc3c2=O)cc1

Potency, active:
O=c1oc2c(-c3cccc(F)c3)cc(O)cc2s1 3.98 µM, CC(C)(C)N/C=C(\C#N)S(=O)(=O)c1ccc(Br)cc1 11.2 µM

activation, inconclusive:
Fc1ccc(-c2ccc(/C=N/n3cnnc3)o2)cc1 -1.63% [activator], CN(Cc1ccccc1)C1=CC(=[N+]2CCCCC2)CC(C)(C)C1 -57.6% [activator]
